Measured values reported in paper PMC12847938.
Results are given in words; binding and its absence hold for the method and conditions named. Binding seen in cells or lysates may run through a third protein. Some results given as binding are weak or reduced against the parent protein; the word gives no strength. For part of these data: Tags and fused reporters may be left off the sequences shown.

Chains of the proteins cited; added tags and fusions are not shown. Lines headed by an entry give the natural chain unless they say otherwise; changes in a name come on top.
UniProt P06733: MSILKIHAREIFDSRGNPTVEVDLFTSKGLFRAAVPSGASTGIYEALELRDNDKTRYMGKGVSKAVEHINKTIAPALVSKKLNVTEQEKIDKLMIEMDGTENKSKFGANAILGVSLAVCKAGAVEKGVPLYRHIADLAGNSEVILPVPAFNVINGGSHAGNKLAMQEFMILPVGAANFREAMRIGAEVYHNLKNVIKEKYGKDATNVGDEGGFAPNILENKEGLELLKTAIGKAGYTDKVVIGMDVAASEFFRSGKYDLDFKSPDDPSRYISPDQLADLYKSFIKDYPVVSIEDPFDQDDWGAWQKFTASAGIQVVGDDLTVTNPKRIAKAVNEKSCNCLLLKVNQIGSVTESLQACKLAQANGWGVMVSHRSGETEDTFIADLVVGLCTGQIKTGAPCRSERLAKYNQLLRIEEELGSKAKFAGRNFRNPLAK
UniProt Q9UNE7: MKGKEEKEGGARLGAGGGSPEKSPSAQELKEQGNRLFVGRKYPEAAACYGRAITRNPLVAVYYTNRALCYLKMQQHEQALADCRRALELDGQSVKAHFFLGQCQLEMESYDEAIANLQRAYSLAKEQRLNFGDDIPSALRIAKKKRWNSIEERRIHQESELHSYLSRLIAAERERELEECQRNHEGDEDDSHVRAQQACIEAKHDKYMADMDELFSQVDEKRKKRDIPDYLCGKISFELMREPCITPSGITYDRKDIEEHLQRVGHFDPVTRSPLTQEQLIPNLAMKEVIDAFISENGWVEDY

What was measured:
His-RRM2 [1] = target: T1, His-RRM2 (UniProt P31350); experiment: co-IP; HEK293T cells transfected with tagged plasmids; tag antibodies (flag, His, Myc) for precipitation and WB detection
T1 sequence: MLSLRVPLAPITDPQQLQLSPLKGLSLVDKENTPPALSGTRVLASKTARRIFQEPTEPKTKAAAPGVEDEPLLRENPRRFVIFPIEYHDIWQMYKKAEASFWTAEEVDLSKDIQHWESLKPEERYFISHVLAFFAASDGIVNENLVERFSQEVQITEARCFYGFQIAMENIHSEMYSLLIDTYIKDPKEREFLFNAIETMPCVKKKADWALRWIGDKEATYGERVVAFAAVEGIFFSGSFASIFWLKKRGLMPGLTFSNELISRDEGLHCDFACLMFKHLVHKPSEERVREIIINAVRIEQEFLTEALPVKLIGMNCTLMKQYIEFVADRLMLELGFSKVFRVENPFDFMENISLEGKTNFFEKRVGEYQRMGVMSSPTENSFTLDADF

His-RRM2 [2] = target: T1, His-RRM2; experiment: co-IP; HEK293T cells co-transfected with Myc-STUB1, His-RRM2 and different amounts of flag-ENO1; His and Myc antibodies for precipitation and WB detection
[3] = target: T2, Ribonucleotide reductase M2 subunit (RRM2), endogenous in PANC-1 cells (human (endogenous in PANC-1)) (UniProt P31350); experiment: co-IP; endogenous proteins precipitated from PANC-1 cell lysates with specific antibodies, WB detection, IgG as negative control; also in cells transfected with sh-ENO1
T2 sequence: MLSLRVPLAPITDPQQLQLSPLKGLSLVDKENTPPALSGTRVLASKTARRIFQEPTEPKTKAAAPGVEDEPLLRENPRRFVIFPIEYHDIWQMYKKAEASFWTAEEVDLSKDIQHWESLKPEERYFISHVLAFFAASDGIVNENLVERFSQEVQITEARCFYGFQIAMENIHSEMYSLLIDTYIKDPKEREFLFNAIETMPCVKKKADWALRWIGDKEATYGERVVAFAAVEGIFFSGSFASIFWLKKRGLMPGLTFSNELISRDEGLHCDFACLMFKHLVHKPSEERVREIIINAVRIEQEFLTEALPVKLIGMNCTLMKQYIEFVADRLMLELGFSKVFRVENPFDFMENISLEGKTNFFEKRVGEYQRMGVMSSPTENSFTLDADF

[4] = target: enolase-1 (ENO1), endogenous in PANC-1 cells (human (endogenous in PANC-1)) (UniProt P06733); experiment: as above
flag-ENO1^D245R = flag-ENO1^D245R (UniProt P06733); experiment: co-IP; HEK293T cells transfected with tagged plasmids; tag antibodies (flag, His, Myc) for precipitation and WB detection
flag-ENO1^WT = flag-ENO1^WT (UniProt P06733); experiment: as above

For Myc-STUB1 (from UniProt Q9UNE7 1-303), the binding (His-RRM2 [1]) was “binds” and the binding (His-RRM2 [2]) was “binds”.

With “STUB1, endogenous in PANC-1 cells (from UniProt Q9UNE7 1-303)” the binding [3] was “binds”.

B1: Ribonucleotide reductase M2 subunit (RRM2), endogenous in PANC-1 cells (protein, UniProt P31350 1-389)
chain: MLSLRVPLAPITDPQQLQLSPLKGLSLVDKENTPPALSGTRVLASKTARRIFQEPTEPKTKAAAPGVEDEPLLRENPRRFVIFPIEYHDIWQMYKKAEASFWTAEEVDLSKDIQHWESLKPEERYFISHVLAFFAASDGIVNENLVERFSQEVQITEARCFYGFQIAMENIHSEMYSLLIDTYIKDPKEREFLFNAIETMPCVKKKADWALRWIGDKEATYGERVVAFAAVEGIFFSGSFASIFWLKKRGLMPGLTFSNELISRDEGLHCDFACLMFKHLVHKPSEERVREIIINAVRIEQEFLTEALPVKLIGMNCTLMKQYIEFVADRLMLELGFSKVFRVENPFDFMENISLEGKTNFFEKRVGEYQRMGVMSSPTENSFTLDADF
For B1, the binding [4] was “binds”.

B2: His-RRM2 (protein, UniProt P31350 1-389)
chain: MLSLRVPLAPITDPQQLQLSPLKGLSLVDKENTPPALSGTRVLASKTARRIFQEPTEPKTKAAAPGVEDEPLLRENPRRFVIFPIEYHDIWQMYKKAEASFWTAEEVDLSKDIQHWESLKPEERYFISHVLAFFAASDGIVNENLVERFSQEVQITEARCFYGFQIAMENIHSEMYSLLIDTYIKDPKEREFLFNAIETMPCVKKKADWALRWIGDKEATYGERVVAFAAVEGIFFSGSFASIFWLKKRGLMPGLTFSNELISRDEGLHCDFACLMFKHLVHKPSEERVREIIINAVRIEQEFLTEALPVKLIGMNCTLMKQYIEFVADRLMLELGFSKVFRVENPFDFMENISLEGKTNFFEKRVGEYQRMGVMSSPTENSFTLDADF
In the case of B2, the binding (flag-ENO1^D245R) is reported as “binds” and the binding (flag-ENO1^WT) is reported as “binds”.
